Results: paper PMC10814579
These are yes or no findings as the source states them, for the method shown. Binding seen in cells or lysates may run through a third protein. Some binding calls cover weakened binding; strength is not graded here.

Molecular target: DHX9 (mouse (endogenous in NIH-3T3)), O70133
Experiment: co-IP; lysates of NIH-3T3 cells (untreated, Olaparib- or Camptothecin-treated) immunoprecipitated with anti-PARP1 or anti-DHX9 antibody (4 h, 4 °C), Protein A/G magnetic beads, Western blot with the other antibody
Conditions: remark: other sources report otherwise

binding: binds
B1: PARP1, P11103 1-1013 (protein)
chain: MAEASERLYRVQYAKSGRASCKKCSESIPKDSLRMAIMVQSPMFDGKVPHWYHFSCFWKVGQSIRHPDVEVDGFSELRWDDQQKVKKTAEAGGVAGKGQDGSGGKAEKTLGDFAAEYAKSNRSMCKGCLEKIEKGQMRLSKKMVDPEKPQLGMIDRWYHPTCFVKKRDELGFRPEYSASQLKGFSLLSAEDKEALKKQLPAIKNEGKRKGDEVDGTDEVAKKKSRKETDKYSKLEKALKAQNELIWNIKDELKKACSTNDLKELLIFNQQQVPSGESAILDRVADGMAFGALLPCKECSGQLVFKSDAYYCTGDVTAWTKCMVKTQNPSRKEWVTPKEFREISYLKKLKVKKQDRIFPPESSAPITVHWPLSVTSAPTAVNSSAPADKPLSNMKILTLGKLSQNKDEAKAVIEKLGGKLTGSANKASLCISIKKEVEKMNKKMEEVKEANIRVVSEDFLQDVSASTKSLQDLLSAHSLSPWGAEVKAEPGEVVAPRGKSAAPSKKSKGCFKEEGVNKSEKRMKLTLKGGAAVDPDSGLEHSAHVLEKGGKVFSATLGLVDIVKGTNSYYKLQLLEDDKESRYWIFRSWGRLGTVIGSNKLEQMPSKEEAVEQFMKLYEEKTGNAWHSKNFTKYPKKFYPLEIDYGQDEEAVKKLTVKPGTKSKLPKPVQELVGMIFDVDSMKKALVEYEIDLQKMPLGKLSRRQIQAAYSILSEVQQPVSQGSSESQILDLSNRFYTLIPHDFGMKKPPLLNNADSVQAKVEMLDNLLDIEVAYSLLRGGSDDSSKDPIDVNYEKLKTDIKVVDRDSEEAEVIRKYVKNTHATTHNAYDLEVIDIFKIEREGESQRYKPFRQLHNRRLLWHGSRTTNFAGILSQGLRIAPPEAPVTGYMFGKGIYFADMVSKSANYCHTSQGDPIGLIMLGEVALGNMYELKHASHISKLPKGKHSVKGLGKTTPDPSASITLEGVEVPLGTGIPSGVNDTALLYNEYIVYDIAQVNLKYLLKLKFNFKTSLW
